Data taken from paper doi:10.1101/2021.10.07.463504.
These are yes or no findings as the source states them, for the method shown. Binding can be weak; no strength is given. Where a sequence is shown, tags or fusion partners need not be part of it.

B1: T25-PBP1ΔPASTA (S. aureus PBP1 without the PASTA domains, M1-S595) (domain or fragment, UniProt Q2FZ94 1-595)
chain: MAKQKIKIKKNKIGAVLLVGLFGLLFFILVLRISYIMITGHSNGQDLVMKANEKYLVKNAQQPERGKIYDRNGKVLAEDVERYKLVAVIDKKASANSKKPRHVVDKKETAKKLSTVINMKPEEIEKRLSQKKAFQIEFGRKGTNLTYQDKLKIEKMNLPGISLLPETERFYPNGNFASHLIGRAQKNPDTGELKGALGVEKIFDSYLSGSKGSLRYIHDIWGYIAPNTKKEKQPKRGDDVHLTIDSNIQVFVEEALDGMVERYQPKDLFAVVMDAKTGEILAYSQRPTFNPETGKDFGKKWANDLYQNTYEPGSTFKSYGLAAAIQEGAFDPDKKYKSGHRDIMGSRISDWNRVGWGEIPMSLGFTYSSNTLMMHLQDLVGADKMKSWYERFGFGKSTKGMFDGEAPGQIGWSNELQQKTSSFGQSTTVTPVQMLQAQSAFFNDGNMLKPWFVNSVENPVSKRQFYKGQKQIAGKPITKDTAEKVEKQLDLVVNSKKSHAANYRIDGYEVEGKTGTAQVAAPNGGGYVKGPNPYFVSFMGDAPKKNPKVIVYAGMSLAQKNDQEAYELGVSKAFKPIMENTLKYLNVGKSKDDTS
B2: S. aureus PBP1 (bacterial two-hybrid fusion) (protein, UniProt Q2FZ94 1-744)
chain: MAKQKIKIKKNKIGAVLLVGLFGLLFFILVLRISYIMITGHSNGQDLVMKANEKYLVKNAQQPERGKIYDRNGKVLAEDVERYKLVAVIDKKASANSKKPRHVVDKKETAKKLSTVINMKPEEIEKRLSQKKAFQIEFGRKGTNLTYQDKLKIEKMNLPGISLLPETERFYPNGNFASHLIGRAQKNPDTGELKGALGVEKIFDSYLSGSKGSLRYIHDIWGYIAPNTKKEKQPKRGDDVHLTIDSNIQVFVEEALDGMVERYQPKDLFAVVMDAKTGEILAYSQRPTFNPETGKDFGKKWANDLYQNTYEPGSTFKSYGLAAAIQEGAFDPDKKYKSGHRDIMGSRISDWNRVGWGEIPMSLGFTYSSNTLMMHLQDLVGADKMKSWYERFGFGKSTKGMFDGEAPGQIGWSNELQQKTSSFGQSTTVTPVQMLQAQSAFFNDGNMLKPWFVNSVENPVSKRQFYKGQKQIAGKPITKDTAEKVEKQLDLVVNSKKSHAANYRIDGYEVEGKTGTAQVAAPNGGGYVKGPNPYFVSFMGDAPKKNPKVIVYAGMSLAQKNDQEAYELGVSKAFKPIMENTLKYLNVGKSKDDTSNAEYSKVPDVEGQDKQKAIDNVSAKSLEPVTIGSGTQIKAQSIKAGNKVLPHSKVLLLTDGDLTMPDMSGWTKEDVIAFENLTNIKVNLKGSGFVSHQSISKGQKLTEKDKIDVEFSSENVDSNSTNNSDSNSDDKKKSDSKTDKDKSD

Experiments:
DivIC (S. aureus) = experiment: two-hybrid
PBP2 (S. aureus) = experiment: two-hybrid

Row | Binder | binding (DivIC (S. aureus)) | binding (PBP2 (S. aureus))
1 | B1 | binds | binds
2 | B2 | binds | binds
